Assay results as given in PubChem BioAssay AID1671190 (National Center for Advancing Translational Sciences (NCATS), 2021).
Out of some 580,000 compounds screened, about 6,100 (1.1%) were called active. The inconclusive results got no clear call from the source; some entries with a clear call stand among them for comparison. Calls follow the shape of the dose curve; as a rule, active = well fitted inhibition curve with a large enough effect; inconclusive = small, poorly fitted or top-dose-only effect, or another doubt; inactive = no such curve, though single readings can be large or run the other way. A potency beside an inconclusive call is a rough fit, not a confirmed value.

Protein sequences, listed by entry. Tags and fused reporters are not part of them. Lines headed by an entry give the natural chain unless they say otherwise; changes in a name come on top.
UniProt P18054: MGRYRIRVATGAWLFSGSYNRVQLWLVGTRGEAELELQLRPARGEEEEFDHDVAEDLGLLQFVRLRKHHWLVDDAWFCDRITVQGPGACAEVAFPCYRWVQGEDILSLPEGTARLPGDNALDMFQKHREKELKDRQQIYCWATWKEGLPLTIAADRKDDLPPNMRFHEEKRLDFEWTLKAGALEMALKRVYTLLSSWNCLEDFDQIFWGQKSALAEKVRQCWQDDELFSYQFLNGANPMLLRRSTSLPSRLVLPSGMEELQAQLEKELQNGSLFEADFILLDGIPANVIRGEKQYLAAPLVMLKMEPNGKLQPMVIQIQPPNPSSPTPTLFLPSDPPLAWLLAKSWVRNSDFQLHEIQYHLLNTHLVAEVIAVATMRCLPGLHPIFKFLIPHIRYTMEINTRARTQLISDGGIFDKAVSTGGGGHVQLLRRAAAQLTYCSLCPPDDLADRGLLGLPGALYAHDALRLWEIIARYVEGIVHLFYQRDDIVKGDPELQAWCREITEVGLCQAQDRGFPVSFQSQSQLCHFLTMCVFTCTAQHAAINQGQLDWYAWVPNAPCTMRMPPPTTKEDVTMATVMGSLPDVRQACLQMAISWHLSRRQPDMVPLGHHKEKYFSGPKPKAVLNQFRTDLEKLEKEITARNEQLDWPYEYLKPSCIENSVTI

Molecular target: Polyunsaturated fatty acid lipoxygenase ALOX12 (Homo sapiens) (UniProt P18054)
Experiment: Primary qHTS assay for inhibitors of human arachidonate 12S-lipoxygenase (ALOX12): Round 2
Conditions: purified 12hLO, xylenol orange hydroperoxide absorbance; activity change, negative = inhibition: at 108 µM (top of the series) unless noted
Outline: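 Purified human 12hLO at 150 nM in 25 mM Hepes, 0.01% Triton X-100, pH 7.0, preincubated 15 min at room temperature with compound. Reaction started with 40 uM arachidonic acid, 30 min at room temperature. Hydroperoxide measured by Fe-xylenol orange, 573/405 nm absorbance ratio.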
% is scaled to controls: 0 for no effect and ±100 for the full control effect; potency is read from the fitted curve at half-maximal effect.

| SMILES | Potency | activity change, negative = inhibition |
| --- | --- | --- |
| Cn1nccc1C(O)c1cc2n(n1)CCN(S(=O)(=O)c1ccccc1)C2 (stereo unspecified) | inconclusive: 2.24 µM [inhibitor, full curve, poor fit] |  |
| Cc1occc1C(=O)OCC(=O)c1sc2ccccc2c1C | active: 31.6 µM |  |
| O=S(=O)(N=C(NS(=O)(=O)c1ccc(Cl)cc1)c1ccccc1)c1ccc(Cl)cc1 |  | inactive: -19.1% |
| Cc1cccc(CNC(=O)c2ccccc2NC(=O)C2=CSCCO2)c1 |  | inactive: 24.6% |
| NNc1nc2c(Cl)c(Cl)ccc2s1 | inconclusive: 25.1 µM [inhibitor, partial curve] |  |
| O=C(O)/C=C\C(=O)Nc1ccccc1C#Cc1ccc(Br)cc1 | inconclusive: 12.6 µM [inhibitor, full curve, poor fit] |  |
| O=C(Nc1ccc(Nc2ccccc2)cc1)c1cc([N+](=O)[O-])ccc1Cl |  | inactive: 16.6% |
| c1ccc(C2[C@H]3CN(Cc4cccnc4)[C@H](c4ccccc4)C34CC2(c2cccnc2)C4)cc1 (stereo partly specified) |  | inactive: 17.1% |
| c1csc(CNc2nc(-c3ccoc3)nc3ccccc23)c1 | active: 10 µM |  |
| Cc1ccc2c(C(=O)N3CCOCC3)cnn2c1 |  | inactive: 41.1% [at 176 µM] |
| C#CCN1C(=O)S/C(=C/c2cn(C(C)C)c3ccccc23)C1=O |  | inactive: 8.07% |
| CCOC(=O)c1ccc(NC(=O)Cn2c(=O)oc3ccccc32)cc1 | inconclusive: 89.1 µM [inhibitor, single point] |  |
| Cc1[nH]nc(S(=O)CC(=O)O)c1[N+](=O)[O-] (stereo unspecified) | inconclusive: 50.1 µM [inhibitor, partial curve, poor fit] |  |
| Cc1cc(=O)n(CC(=O)Nc2ccccc2C)c(N2CCc3ccccc3C2)n1 | inconclusive: 39.8 µM [inhibitor, full curve] |  |
| Cc1cc(CSCC(=O)Nc2ccc3c(c2)CCC3)no1 | inconclusive: 44.7 µM [inhibitor, partial curve, poor fit] |  |
| CCCCCC(=C/c1ccccc1)/C=N/Nc1nc2ccccc2[nH]1 | inconclusive: 44.7 µM [inhibitor, partial curve, poor fit] |  |
| Cc1ccc(/C=C2/C(=N)N3N=C(CC(=O)N4CCCC4)SC3=NC2=O)o1 | inconclusive: 7.08 µM [inhibitor, full curve, poor fit] |  |
| CCCn1c(=O)[nH]c(=O)c2c1nc(-c1ccc3c(c1)OCCO3)n2CCN1CCOCC1 | inconclusive: 3.16 µM [inhibitor, full curve, poor fit] |  |
| O=C(Cn1c(=O)c(S(=O)(=O)c2ccccc2)cc2ccccc21)N1CCCC1 | inconclusive: 50.1 µM [inhibitor, partial curve, poor fit] |  |
| O=C(c1ccc(Cl)c(S(=O)(=O)N2CCCCCC2)c1)N1CCN(c2ccc(O)cc2)CC1 | inconclusive: 89.1 µM [inhibitor, partial curve, poor fit] |  |
| C[C@H](CO)N1C[C@H](C)[C@@H](CN(C)S(=O)(=O)c2ccccc2F)Oc2ncc(C#Cc3cccnc3)cc2C1=O | inconclusive: 100 µM [inhibitor, partial curve, poor fit] |  |

Three entries from above, ordered by length of the SMILES, falling:

| SMILES | Potency | activity change, negative = inhibition |
| --- | --- | --- |
| O=C(Nc1ccc(Nc2ccccc2)cc1)c1cc([N+](=O)[O-])ccc1Cl |  | inactive: 16.6% |
| Cc1cccc(CNC(=O)c2ccccc2NC(=O)C2=CSCCO2)c1 |  | inactive: 24.6% |
| Cc1occc1C(=O)OCC(=O)c1sc2ccccc2c1C | active: 31.6 µM |  |

Going on with the list.

| SMILES | Potency | activity change, negative = inhibition |
| --- | --- | --- |
| O=C1CC(N2CCN(c3ncccn3)CC2)C(=O)N1CCc1ccccc1 (stereo unspecified) | inconclusive: 0.891 µM [inhibitor, partial curve, poor fit] |  |
| COc1ccc(CNC[C@H]2COCc3nc4cc(F)ccc4n32)cn1 |  | inactive: 36.8% [at 176 µM] |
| CC(C)(C)C1CCC(OC(=O)C[N+]2(C)CCCC2)CC1 (stereo unspecified) | inconclusive: 56.2 µM [inhibitor, partial curve, poor fit] |  |
| Cc1ccc2ccc(C(Nc3cccc(C(F)(F)F)c3)c3cccnc3)c(O)c2n1 (stereo unspecified) | inconclusive: 50.1 µM [inhibitor, partial curve, poor fit] |  |
| Cc1cccc(-n2ncc(C(=O)N3CCc4ccccc4C3)c2-n2cccc2)c1 | inconclusive: 141 µM [inhibitor, partial curve, poor fit] |  |
| Cc1ccc(Cn2cccc(NC(=O)NCc3ccccc3)c2=O)cc1 |  | inactive: -19.8% |
| C[C@H]1CN([C@@H](C)CO)C(=O)CCCn2cc(nn2)CO[C@@H]1CN(C)S(=O)(=O)c1ccccc1F | inconclusive: 141 µM [inhibitor, single point] |  |
| CSC1=C(C#N)C(CC(C)C)C2=C(CCCC2=O)N1 (stereo unspecified) | inconclusive: 31.6 µM [inhibitor, single point] |  |
| COc1cccc(C2CC(=O)Nc3c(C(=O)O)cn(-c4cccc(Cl)c4)c32)c1OC (stereo unspecified) | inconclusive: 79.4 µM [inhibitor, single point] |  |
| Cc1nc2c(C(=O)NCc3ccc4c(c3)OCO4)c[nH]n2c(=O)c1Cl | inconclusive: 39.8 µM [inhibitor, partial curve, poor fit] |  |
| O=C(CCc1c[nH]c2ccccc12)NCc1ccc2c(c1)OCO2 | inconclusive: 1.26 µM [inhibitor, partial curve, poor fit] |  |
| CCN(CC(=O)Nc1ccc(C)c(S(=O)(=O)N(C)C)c1)Cc1ccccc1 | inconclusive: 5.01 µM [inhibitor, full curve, poor fit] |  |
| O=C(Nc1cccc(/C=C/c2ccccn2)c1)c1ccc(-n2cncn2)c([N+](=O)[O-])c1 |  | inactive: -3.31% |
| CC(=O)NNc1ncnc2c1cnn2-c1ccc(C)c(Cl)c1 |  | inactive: 2.1% |
| CCn1c2c(c(=O)n3ncc(C(=O)Nc4cc(Cl)ccc4OC)c13)CN(Cc1ccc(OC)cc1)CC2 | inconclusive: 56.2 µM [inhibitor, partial curve, poor fit] |  |
| N#Cc1c(-c2ccc(F)cc2)cc(C2CC2)nc1SCC(=O)c1cccs1 |  | inactive: -10.2% |
| COC(=O)c1cc(S(=O)(=O)Nc2ccc(C)c(F)c2)c[nH]1 | inconclusive: 22.4 µM [inhibitor, partial curve, poor fit] |  |
| O=C(Nc1cc(Cl)ccc1Oc1ccccc1)C1=COCCO1 | inconclusive: 39.8 µM [inhibitor, single point] |  |
| Cc1ccc(Nc2nc(C)c(C(=O)Nc3ccccc3)s2)cc1 | inconclusive: 1.78 µM [inhibitor, full curve, poor fit] |  |
| COc1cccc(-c2cc3c(=O)n(-c4ccccc4)c(=S)[nH]c3s2)c1 | inconclusive: 31.6 µM [inhibitor, partial curve, poor fit] |  |
